For at least one compound, name, drawing or mass did not settle the structure.
Tested on: primary mouse hepatocytes
Assay: MIEL-Rejuvenation in primary old hepatocytes
Type: cell-based, mice
Source text: To meet this challenge, techniques described herein were employed to analyze the effects of various drugs on the analysis of epigenome topography at the single cell level. Because of large numbers of cells required for drug screening, mice were used as a source of (C57BLACK/6) of liver hepatocytes (˜98% pure in the preparations) for probing whether epigenetic signature of aging is retained after short-term cultures of hepatocytes. […] The ability of hepatocytes to maintain age-related epigenetic or multiparametric signatures in cell culture conditions provides the foundation for high throughput screening.
These high content screenings using MIEL pipeline were conducted to adapt these assay conditions. Briefly, on day 0, 10,000 primary mouse hepatocytes per well were seeded in 384 well plates. Hepatocytes were isolated via a 2-step perfusion method yielding ˜98% pure population of primary hepatocytes. At 24 hrs after seeding, compounds were added in DMSO. Primary mouse hepatocytes were determined to tolerate DMSO concentrations of at least 0.1% (v/v) without adverse effects on cell growth or viability over 5 days (compared to no DMSO control). Using the Echo acoustic compound dispensing system and 10 mM stock concentration library plates, each of the drugs at concentrations up to 10 μM was sufficiently delivered. […]

Structure (SMILES) | epigenetic signature of old cells relative to young cells (old hepatocytes (20-22 months), 2 uM, 3 days) | shift of epigenetic signature of old cells towards that of young cells (old hepatocytes)
COc1cccc2cc(-c3nc([C@H]4CC[C@H](C(=O)O)CC4)n4ncnc(N)c34)[nH]c12 [OSI-027] | shifts the signature of old cells closer to that of young cells | –
CO[C@H]1C[C@@H]2CC[C@@H](C)[C@@](O)(O2)C(=O)C(=O)N2CCCC[C@H]2C(=O)O[C@H]([C@H](C)C[C@@H]2CC[C@@H](O)[C@H](OC)C2)CC(=O)[C@H](C)/C=C(\C)[C@@H](O)[C@@H](OC)C(=O)[C@H](C)C[C@H](C)/C=C/C=C/C=C/1C [Rapamycin] | – | Statistically significant dose-dependent shifts

Reference: patent publication US20230392180A1, “MICROSCOPIC IMAGING AND ANALYSES OF EPIGENETIC LANDSCAPE” (Sanford Burnham Prebys Medical Discovery Institute, priority 2020, published 2023)
